PubChem BioAssay AID1159578, Peter MacCallum Cancer Centre – 2015

- Screen: 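Genome-wide hunt for genes controlling movement of lymphatic endothelial cells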 (primary screen)
- Cell system: human lymphatic endothelial cells
- Reagent: siRNA pool against human genes, 40 nM
- Duration: 48 h after transfection
- Measured: 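Cells stained with dye and imaged after a scratch; covered wound area and nuclei counted, duplicates averaged, migration set against mock wells and turned into a robust z-score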
- Reading the numbers: migration robust z-score: higher = faster migration into the scratch; migration relative to mock: higher = more scratch area covered than mock; nuclei per well: higher = more cells in the well
- Call rule: 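Migration changed when robust z exceeds 2 or falls below -2 and mean nuclei number is at least 3300; otherwise not called changed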
- Calls: active = migration changed; inactive = no migration change, or too few cells
Shown is one part, drawn at random, of about 18,000 reagents tested. About 1,030 of all reagents (5.7%) were called active. 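Inactive calls also include pools with fewer than 3300 nuclei, whose migration was not assessed.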 Raw values are not corrected between plates.

no.	target	migration robust z-score	migration class with cell-count check	migration relative to mock	nuclei per well, duplicate mean	call
1	TRMO	0.86	migration z between -2 and 2; enough cells	1.11	5784	inactive
2	PHAX	-0.27	migration z between -2 and 2; enough cells	0.82	5942	inactive
3	CCDC124	1.3	migration z between -2 and 2; enough cells	1.22	5936	inactive
4	PLXND1	-1.21	migration z between -2 and 2; enough cells	0.56	4158	inactive
5	CD40	0.96	migration z between -2 and 2; enough cells	0.99	5662	inactive
6	COA4	-2.54	under 3300 nuclei; migration not judged	0.23	2126	inactive
7	PCDHA11	-1.04	migration z between -2 and 2; enough cells	0.61	3538	inactive
8	KRT1	-0.02	migration z between -2 and 2; enough cells	0.88	6408	inactive
9	RPS6KB2	0.6	migration z between -2 and 2; enough cells	0.92	6194	inactive
10	SIPA1L2	0.04	migration z between -2 and 2; enough cells	0.89	5436	inactive
11	RFTN2	-1.18	migration z between -2 and 2; enough cells	0.58	6764	inactive
12	ZNF185	0.54	migration z between -2 and 2; enough cells	0.91	5204	inactive
13	OR4K13	0.06	migration z between -2 and 2; enough cells	0.9	5800	inactive
14	PCDHA8	-0.16	migration z between -2 and 2; enough cells	0.84	6986	inactive
15	ERICH1	0.36	migration z between -2 and 2; enough cells	0.98	5946	inactive
16	AGMAT	-0.16	migration z between -2 and 2; enough cells	0.78	5542	inactive
17	RANBP2	-0.21	migration z between -2 and 2; enough cells	0.76	5478	inactive
18	GPATCH11	-2.01	migration z below -2; enough cells	0.36	6544	active
19	SKOR2	-1.04	migration z between -2 and 2; enough cells	0.62	4551	inactive
20	RNASE3	0.62	migration z between -2 and 2; enough cells	0.92	5146	inactive
21	GAP43	-0.26	migration z between -2 and 2; enough cells	0.82	7037	inactive
22	CRNN	-3.68	under 3300 nuclei; migration not judged	-0.06	2206	inactive
23	SPMIP9	2.21	migration z above 2; enough cells	1.46	6096	active
